Measurements reported in the supplement of paper PMC8728848.
This is one part of the list.

What was measured:
Experiment in all cases: glycan array binding signal (z-score within array); higher = stronger binding
Details in all cases: glycan notation: IUPAC condensed, linker removed
[1] = target: GlcNAc(b1-3)Gal(b1-3)GalNAc
Procedure, shortened: (§1)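 Negative Z-scores can be read as non-binding. The Z-score is calculated within each array and then averaged across arrays of one protein sequence at different concentrations or buffers and across linkers. Arrays, 3228 in all, were curated from the Consortium for Functional Glycomics database and kept only where the protein sequence was available.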

GlcNAc(b1-3)Gal(b1-4)Glc = target: GlcNAc(b1-3)Gal(b1-4)Glc
Procedure, shortened: as §1

[2] = target: GlcNAc(b1-3)Gal(b1-4)GlcNAc
Procedure, shortened: as §1

[3] = target: GlcNAc(b1-3)Gal(b1-4)GlcNAc(b1-2)Man(a1-3)[GlcNAc(b1-3)Gal(b1-4)GlcNAc(b1-2)Man(a1-6)]Man(b1-4)GlcNAc(b1-4)GlcNAc
Procedure, shortened: as §1

[4] = target: GlcNAc(b1-3)Gal(b1-4)GlcNAc(b1-2)Man(a1-3)[GlcNAc(b1-3)Gal(b1-4)GlcNAc(b1-2)Man(a1-6)]Man(b1-4)GlcNAc(b1-4)[Fuc(a1-6)]GlcNAc
Procedure, shortened: as §1

[5] = target: GlcNAc(b1-3)Gal(b1-4)GlcNAc(b1-2)[GlcNAc(b1-3)Gal(b1-4)GlcNAc(b1-6)]Man(a1-6)[GlcNAc(b1-3)Gal(b1-4)GlcNAc(b1-2)Man(a1-3)]Man(b1-4)GlcNAc(b1-4)GlcNAc
Procedure, shortened: as §1

[6] = target: GlcNAc(b1-3)Gal(b1-4)GlcNAc(b1-3)Gal(b1-4)GlcNAc
Procedure, shortened: as §1

[7] = target: GlcNAc(b1-3)Gal(b1-4)GlcNAc(b1-3)Gal(b1-4)GlcNAc(b1-2)Man(a1-3)[GlcNAc(b1-3)Gal(b1-4)GlcNAc(b1-3)Gal(b1-4)GlcNAc(b1-2)Man(a1-6)]Man(b1-4)GlcNAc(b1-4)GlcNAc
Procedure, shortened: as §1

[8] = target: GlcNAc(b1-3)Gal(b1-4)GlcNAc(b1-3)Gal(b1-4)GlcNAc(b1-2)Man(a1-3)[GlcNAc(b1-3)Gal(b1-4)GlcNAc(b1-3)Gal(b1-4)GlcNAc(b1-2)Man(a1-6)]Man(b1-4)GlcNAc(b1-4)[Fuc(a1-6)]GlcNAc
Procedure, shortened: as §1

[9] = target: GlcNAc(b1-3)Gal(b1-4)GlcNAc(b1-3)Gal(b1-4)GlcNAc(b1-2)[GlcNAc(b1-3)Gal(b1-4)GlcNAc(b1-3)Gal(b1-4)GlcNAc(b1-6)]Man(a1-6)[GlcNAc(b1-3)Gal(b1-4)GlcNAc(b1-3)Gal(b1-4)GlcNAc(b1-2)Man(a1-3)]Man(b1-4)GlcNAc(b1-4)[Fuc(a1-6)]GlcNAc
Procedure, shortened: as §1

[10] = target: GlcNAc(b1-3)Gal(b1-4)GlcNAc(b1-3)Gal(b1-4)GlcNAc(b1-3)Gal(b1-4)GlcNAc(b1-2)Man(a1-3)[GlcNAc(b1-3)Gal(b1-4)GlcNAc(b1-3)Gal(b1-4)GlcNAc(b1-3)Gal(b1-4)GlcNAc(b1-2)Man(a1-6)]Man(b1-4)GlcNAc(b1-4)GlcNAc
Procedure, shortened: as §1

[11] = target: GlcNAc(b1-3)Gal(b1-4)GlcNAc(b1-3)Gal(b1-4)GlcNAc(b1-3)Gal(b1-4)GlcNAc(b1-2)Man(a1-3)[GlcNAc(b1-3)Gal(b1-4)GlcNAc(b1-3)Gal(b1-4)GlcNAc(b1-3)Gal(b1-4)GlcNAc(b1-2)Man(a1-6)]Man(b1-4)GlcNAc(b1-4)[Fuc(a1-6)]GlcNAc
Procedure, shortened: as §1

[12] = target: GlcNAc(b1-3)Gal(b1-4)GlcNAc(b1-3)Gal(b1-4)GlcNAc(b1-3)Gal(b1-4)GlcNAc(b1-2)[GlcNAc(b1-3)Gal(b1-4)GlcNAc(b1-3)Gal(b1-4)GlcNAc(b1-3)Gal(b1-4)GlcNAc(b1-6)]Man(a1-6)[GlcNAc(b1-3)Gal(b1-4)GlcNAc(b1-3)Gal(b1-4)GlcNAc(b1-3)Gal(b1-4)GlcNAc(b1-2)Man(a1-3)]Man(b1-4)GlcNAc(b1-4)[Fuc(a1-6)]GlcNAc
Procedure, shortened: as §1

[13] = target: GlcNAc(b1-3)Gal(b1-4)GlcNAc(b1-3)Gal(b1-4)GlcNAc(b1-3)Gal(b1-4)GlcNAc(b1-3)Gal(b1-4)GlcNAc(b1-2)Man(a1-3)[GlcNAc(b1-3)Gal(b1-4)GlcNAc(b1-3)Gal(b1-4)GlcNAc(b1-3)Gal(b1-4)GlcNAc(b1-3)Gal(b1-4)GlcNAc(b1-2)Man(a1-6)]Man(b1-4)GlcNAc(b1-4)GlcNAc
Procedure, shortened: as §1

[14] = target: GlcNAc(b1-3)Gal(b1-4)GlcNAc(b1-3)Gal(b1-4)GlcNAc(b1-3)Gal(b1-4)GlcNAc(b1-3)Gal(b1-4)GlcNAc(b1-2)Man(a1-3)[GlcNAc(b1-3)Gal(b1-4)GlcNAc(b1-3)Gal(b1-4)GlcNAc(b1-3)Gal(b1-4)GlcNAc(b1-3)Gal(b1-4)GlcNAc(b1-2)Man(a1-6)]Man(b1-4)GlcNAc(b1-4)[Fuc(a1-6)]GlcNAc
Procedure, shortened: as §1

[15] = target: GlcNAc(b1-3)Gal(b1-4)GlcNAc(b1-3)Gal(b1-4)GlcNAc(b1-3)Gal(b1-4)GlcNAc(b1-3)Gal(b1-4)GlcNAc(b1-2)[GlcNAc(b1-3)Gal(b1-4)GlcNAc(b1-3)Gal(b1-4)GlcNAc(b1-3)Gal(b1-4)GlcNAc(b1-3)Gal(b1-4)GlcNAc(b1-6)]Man(a1-6)[GlcNAc(b1-3)Gal(b1-4)GlcNAc(b1-3)Gal(b1-4)GlcNAc(b1-3)Gal(b1-4)GlcNAc(b1-3)Gal(b1-4)GlcNAc(b1-2)Man(a1-3)]Man(b1-4)GlcNAc(b1-4)[Fuc(a1-6)]GlcNAc
Procedure, shortened: as §1

[16] = target: GlcNAc(b1-3)Gal(b1-4)GlcNAc(b1-3)Gal(b1-4)GlcNAc(b1-3)GalNAc
Procedure, shortened: as §1

[17] = target: GlcNAc(b1-3)Gal(b1-4)GlcNAc(b1-3)GalNAc
Procedure, shortened: as §1

[18] = target: GlcNAc(b1-3)Gal(b1-4)GlcNAc(b1-3)[GlcNAc(b1-3)Gal(b1-4)GlcNAc(b1-3)]GalNAc
Procedure, shortened: as §1

[19] = target: GlcNAc(b1-3)Gal(b1-4)GlcNAc(b1-6)[Gal(b1-3)]GalNAc
Procedure, shortened: as §1

[20] = target: GlcNAc(b1-3)Gal(b1-4)GlcNAc(b1-6)[GlcNAc(b1-3)Gal(b1-3)]GalNAc
Procedure, shortened: as §1

[21] = target: GlcNAc(b1-3)Gal(b1-4)GlcNAc(b1-6)[GlcNAc(b1-3)]Gal(b1-4)GlcNAc
Procedure, shortened: as §1

GlcNAc(b1-3)GalNAc = target: GlcNAc(b1-3)GalNAc
Procedure, shortened: as §1

GlcNAc(b1-3)Man = target: GlcNAc(b1-3)Man
Procedure, shortened: as §1

[22] = target: GlcNAc(b1-3)[GlcNAc(b1-4)][GlcNAc(b1-6)]GlcNAc
Procedure, shortened: as §1

[23] = target: GlcNAc(b1-3)[GlcNAc(b1-6)]Gal(b1-4)GlcNAc
Procedure, shortened: as §1

[24] = target: GlcNAc(b1-3)[GlcNAc(b1-6)]GalNAc
Procedure, shortened: as §1

[25] = target: GlcNAc(b1-4)Gal(b1-4)GlcNAc
Procedure, shortened: as §1

GlcNAc(b1-4)GlcNAc = target: GlcNAc(b1-4)GlcNAc
Procedure, shortened: as §1

[26] = target: GlcNAc(b1-4)GlcNAc(b1-4)GlcNAc
Procedure, shortened: as §1

[27] = target: GlcNAc(b1-4)GlcNAc(b1-4)GlcNAc(b1-4)GlcNAc(b1-4)GlcNAc
Procedure, shortened: as §1

[28] = target: GlcNAc(b1-4)GlcNAc(b1-4)GlcNAc(b1-4)GlcNAc(b1-4)GlcNAc(b1-4)GlcNAc
Procedure, shortened: as §1

[29] = target: GlcNAc(b1-4)[GlcNAc(b1-6)]GalNAc
Procedure, shortened: as §1

[30] = target: GlcNAc(b1-6)Gal(b1-4)GlcNAc
Procedure, shortened: as §1

GlcNAc(b1-6)GalNAc = target: GlcNAc(b1-6)GalNAc
Procedure, shortened: as §1

[31] = target: GlcNAc6S(b1-3)Gal(b1-4)GlcNAc
Procedure, shortened: as §1

Kdn(a2-3)Gal(b1-3)GalNAc = target: Kdn(a2-3)Gal(b1-3)GalNAc
Procedure, shortened: as §1

B1: AT5G17240(42) (Arabidopsis thaliana), Q6NQJ8 (protein)
chain: MDLEHQTMETFLRWAAEIGISDSIDSSRFRDSCLGHSLSVSDFPDAGGRGLGAARELKKGELVLKVPRKALMTTESIIAKDLKLSDAVNLHNSLSSTQILSVCLLYEMSKEKKSFWYPYLFHIPRDYDLLATFGNFEKQALQVEDAVWATEKATAKCQSEWKEAGSLMKELELKPKFRSFQAWLWASATISSRTLHVPWDSAGCLCPVGDLFNYDAPGDYSNTPQGPESANNVEEAGLVVETHSERLTDGGFEEDVNAYCLYARRNYQLGEQVLLCYGTYTNLELLEHYGFMLEENSNDKVFIPLETSLFSLASSWPKDSLYIHQDGKLSFALISTLRLWLIPQSQRDKSVMRLVYAGSQISVKNEILVMKWMSEKCGSVLRDLPTSVTEDTVLLHNIDKLQDPELRLEQKETEAFGSEVRAFLDANCLWDVTVLSGKPIEFSRKTSRMLSKWRWSVQWRLSYKRTLADCISYCNEKMNNLLGTQDRLRDL
**Q.** How did the “glycan array binding signal (z-score)” value [1] turn out when B1 was run?
**A.** -0.178

**Q.** What about the “glycan array binding signal (z-score)” value (GlcNAc(b1-3)Gal(b1-4)Glc) of the same binder?
**A.** -0.232

**Q.** What about the “glycan array binding signal (z-score)” value [2] of the same binder?
**A.** 0.129

**Q.** And the “glycan array binding signal (z-score)” value [3]?
**A.** -0.343

**Q.** What about the “glycan array binding signal (z-score)” value [4] of the same binder?
**A.** -0.256

**Q.** And the “glycan array binding signal (z-score)” value [5]?
**A.** 2.56

**Q.** What about the “glycan array binding signal (z-score)” value [6] of the same binder?
**A.** -0.234

**Q.** What about the “glycan array binding signal (z-score)” value [7] of the same binder?
**A.** 0.442

**Q.** And the “glycan array binding signal (z-score)” value [8]?
**A.** -0.319

**Q.** What about the “glycan array binding signal (z-score)” value [9] of the same binder?
**A.** 1.12

**Q.** What about the “glycan array binding signal (z-score)” value [10] of the same binder?
**A.** 0.407

**Q.** And the “glycan array binding signal (z-score)” value [11]?
**A.** 0.113

**Q.** What about the “glycan array binding signal (z-score)” value [12] of the same binder?
**A.** 0.564

**Q.** And the “glycan array binding signal (z-score)” value [13]?
**A.** 0.094

**Q.** And the “glycan array binding signal (z-score)” value [14]?
**A.** 0.747

**Q.** What about the “glycan array binding signal (z-score)” value [15] of the same binder?
**A.** 1.33

**Q.** And the “glycan array binding signal (z-score)” value [16]?
**A.** -0.468

**Q.** And the “glycan array binding signal (z-score)” value [17]?
**A.** -0.44

**Q.** What about the “glycan array binding signal (z-score)” value [18] of the same binder?
**A.** -0.215

**Q.** What about the “glycan array binding signal (z-score)” value [19] of the same binder?
**A.** -0.992

**Q.** And the “glycan array binding signal (z-score)” value [20]?
**A.** -0.048

**Q.** And the “glycan array binding signal (z-score)” value [21]?
**A.** 0.17

**Q.** And the “glycan array binding signal (z-score)” value (GlcNAc(b1-3)GalNAc)?
**A.** 0.283

**Q.** And the “glycan array binding signal (z-score)” value (GlcNAc(b1-3)Man)?
**A.** -0.137

**Q.** What about the “glycan array binding signal (z-score)” value [22] of the same binder?
**A.** -0.488

**Q.** And the “glycan array binding signal (z-score)” value [23]?
**A.** 0.895

**Q.** What about the “glycan array binding signal (z-score)” value [24] of the same binder?
**A.** -0.006

**Q.** And the “glycan array binding signal (z-score)” value [25]?
**A.** -0.713

**Q.** What about the “glycan array binding signal (z-score)” value (GlcNAc(b1-4)GlcNAc) of the same binder?
**A.** 0.279

**Q.** And the “glycan array binding signal (z-score)” value [26]?
**A.** -0.495

**Q.** And the “glycan array binding signal (z-score)” value [27]?
**A.** -0.309

**Q.** And the “glycan array binding signal (z-score)” value [28]?
**A.** 0.194

**Q.** What about the “glycan array binding signal (z-score)” value [29] of the same binder?
**A.** 0.61

**Q.** What about the “glycan array binding signal (z-score)” value [30] of the same binder?
**A.** 1.88

**Q.** What about the “glycan array binding signal (z-score)” value (GlcNAc(b1-6)GalNAc) of the same binder?
**A.** -0.686

**Q.** What about the “glycan array binding signal (z-score)” value [31] of the same binder?
**A.** -0.23

**Q.** What about the “glycan array binding signal (z-score)” value (Kdn(a2-3)Gal(b1-3)GalNAc) of the same binder?
**A.** -0.096
